Results are given in words; binding and its absence hold for the method and conditions named. Binding seen in cells or lysates may run through a third protein.
Molecular target: Wt PTEN (human wild type PTEN) (human), P60484
Experiment: co-IP; lysates of PTEN-overexpressed PC3 cells (50 mM Tris pH 7.5, 10% glycerol, 5 mM MgCl2, 150 mM NaCl, 0.2% NP-40) incubated with anti-PTEN (138G6) or control IgG overnight at 4 °C, protein G sepharose; MTHFD1 detected by immunoblot
Settings: remark: other sources report otherwise

binding: no binding
B1: methylenetetrahydrofolate dehydrogenase 1 (MTHFD1), P11586 1-935 (enzyme)
chain: MAPAEILNGKEISAQIRARLKNQVTQLKEQVPGFTPRLAILQVGNRDDSNLYINVKLKAAEEIGIKATHIKLPRTTTESEVMKYITSLNEDSTVHGFLVQLPLDSENSINTEEVINAIAPEKDVDGLTSINAGKLARGDLNDCFIPCTPKGCLELIKETGVPIAGRHAVVVGRSKIVGAPMHDLLLWNNATVTTCHSKTAHLDEEVNKGDILVVATGQPEMVKGEWIKPGAIVIDCGINYVPDDKKPNGRKVVGDVAYDEAKERASFITPVPGGVGPMTVAMLMQSTVESAKRFLEKFKPGKWMIQYNNLNLKTPVPSDIDISRSCKPKPIGKLAREIGLLSEEVELYGETKAKVLLSALERLKHRPDGKYVVVTGITPTPLGEGKSTTTIGLVQALGAHLYQNVFACVRQPSQGPTFGIKGGAAGGGYSQVIPMEEFNLHLTGDIHAITAANNLVAAAIDARIFHELTQTDKALFNRLVPSVNGVRRFSDIQIRRLKRLGIEKTDPTTLTDEEINRFARLDIDPETITWQRVLDTNDRFLRKITIGQAPTEKGHTRTAQFDISVASEIMAVLALTTSLEDMRERLGKMVVASSKKGEPVSAEDLGVSGALTVLMKDAIKPNLMQTLEGTPVFVHAGPFANIAHGNSSIIADRIALKLVGPEGFVVTEAGFGADIGMEKFFNIKCRYSGLCPHVVVLVATVRALKMHGGGPTVTAGLPLPKAYIQENLELVEKGFSNLKKQIENARMFGIPVVVAVNAFKTDTESELDLISRLSREHGAFDAVKCTHWAEGGKGALALAQAVQRAAQAPSSFQLLYDLKLPVEDKIRIIAQKIYGADDIELLPEAQHKAEVYTKQGFGNLPICMAKTHLSLSHNPEQKGVPTGFILPIRDIRASVGAGFLYPLVGTMSTMPGLPTRPCFYDIDLDPETEQVNGLF
